From the supplement of paper PMC7666118 come the findings set out here.

Sequences of proteins named here, by UniProt entry; tags and fusion partners are left off. A change or cut given only in a name is not applied to a line headed by its entry.
UniProt O75821, whole entry: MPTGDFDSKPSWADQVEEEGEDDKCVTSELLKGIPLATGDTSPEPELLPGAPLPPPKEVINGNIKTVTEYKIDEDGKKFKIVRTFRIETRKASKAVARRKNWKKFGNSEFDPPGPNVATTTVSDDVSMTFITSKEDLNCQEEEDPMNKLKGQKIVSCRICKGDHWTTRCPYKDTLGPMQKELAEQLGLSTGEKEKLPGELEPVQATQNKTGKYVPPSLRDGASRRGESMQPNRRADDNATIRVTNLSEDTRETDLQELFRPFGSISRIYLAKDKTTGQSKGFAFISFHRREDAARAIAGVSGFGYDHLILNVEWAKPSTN
UniProt Q9NVF7: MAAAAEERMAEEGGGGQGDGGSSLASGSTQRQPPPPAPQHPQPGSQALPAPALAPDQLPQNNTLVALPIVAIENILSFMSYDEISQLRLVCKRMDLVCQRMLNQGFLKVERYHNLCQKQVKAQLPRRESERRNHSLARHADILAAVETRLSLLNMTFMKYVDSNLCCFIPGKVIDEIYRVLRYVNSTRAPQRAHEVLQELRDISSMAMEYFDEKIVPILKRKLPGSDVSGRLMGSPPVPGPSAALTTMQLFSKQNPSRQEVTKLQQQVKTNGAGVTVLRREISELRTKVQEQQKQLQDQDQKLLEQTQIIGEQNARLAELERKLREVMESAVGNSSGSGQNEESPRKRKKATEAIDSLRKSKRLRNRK
UniProt Q13347, whole entry: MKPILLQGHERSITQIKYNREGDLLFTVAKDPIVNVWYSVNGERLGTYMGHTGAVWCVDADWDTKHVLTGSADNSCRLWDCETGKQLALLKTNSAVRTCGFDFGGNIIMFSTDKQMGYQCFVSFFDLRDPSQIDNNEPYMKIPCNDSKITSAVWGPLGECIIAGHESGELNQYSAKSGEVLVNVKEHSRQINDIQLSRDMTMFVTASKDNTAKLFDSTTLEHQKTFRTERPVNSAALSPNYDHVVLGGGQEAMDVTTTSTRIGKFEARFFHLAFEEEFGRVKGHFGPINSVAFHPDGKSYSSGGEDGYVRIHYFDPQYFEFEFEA
UniProt Q9NQT4, whole entry: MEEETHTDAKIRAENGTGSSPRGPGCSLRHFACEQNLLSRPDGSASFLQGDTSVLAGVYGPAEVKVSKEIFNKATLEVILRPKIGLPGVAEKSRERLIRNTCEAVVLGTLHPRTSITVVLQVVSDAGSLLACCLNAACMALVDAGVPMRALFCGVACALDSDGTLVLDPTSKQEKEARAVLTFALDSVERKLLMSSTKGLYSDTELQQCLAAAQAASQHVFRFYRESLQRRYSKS
UniProt P57772: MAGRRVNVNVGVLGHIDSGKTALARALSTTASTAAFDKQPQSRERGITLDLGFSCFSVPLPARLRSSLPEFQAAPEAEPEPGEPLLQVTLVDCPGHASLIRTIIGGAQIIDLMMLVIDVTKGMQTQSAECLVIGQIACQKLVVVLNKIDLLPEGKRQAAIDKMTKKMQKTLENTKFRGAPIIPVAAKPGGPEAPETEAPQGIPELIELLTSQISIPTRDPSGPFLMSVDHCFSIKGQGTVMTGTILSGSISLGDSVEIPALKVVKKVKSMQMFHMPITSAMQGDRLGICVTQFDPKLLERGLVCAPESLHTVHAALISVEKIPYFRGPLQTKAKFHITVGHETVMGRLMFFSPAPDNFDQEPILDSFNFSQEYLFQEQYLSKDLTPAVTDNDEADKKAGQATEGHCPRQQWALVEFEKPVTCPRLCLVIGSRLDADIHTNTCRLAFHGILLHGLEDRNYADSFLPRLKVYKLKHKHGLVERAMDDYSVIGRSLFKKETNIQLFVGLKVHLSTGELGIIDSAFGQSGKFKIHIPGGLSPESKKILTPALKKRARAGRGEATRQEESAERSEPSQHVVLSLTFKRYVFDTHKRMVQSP
UniProt Q13216, whole entry: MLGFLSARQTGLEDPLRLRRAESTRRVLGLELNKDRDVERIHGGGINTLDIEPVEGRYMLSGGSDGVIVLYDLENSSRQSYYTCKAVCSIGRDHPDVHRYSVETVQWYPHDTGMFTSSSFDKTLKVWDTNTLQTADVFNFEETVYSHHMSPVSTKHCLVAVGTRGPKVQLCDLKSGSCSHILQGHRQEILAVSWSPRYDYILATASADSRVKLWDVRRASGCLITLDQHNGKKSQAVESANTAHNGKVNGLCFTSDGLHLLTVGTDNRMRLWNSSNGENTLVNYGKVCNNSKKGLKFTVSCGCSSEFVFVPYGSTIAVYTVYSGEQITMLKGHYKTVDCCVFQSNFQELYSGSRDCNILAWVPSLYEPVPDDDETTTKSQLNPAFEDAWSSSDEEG
UniProt Q8IYI6: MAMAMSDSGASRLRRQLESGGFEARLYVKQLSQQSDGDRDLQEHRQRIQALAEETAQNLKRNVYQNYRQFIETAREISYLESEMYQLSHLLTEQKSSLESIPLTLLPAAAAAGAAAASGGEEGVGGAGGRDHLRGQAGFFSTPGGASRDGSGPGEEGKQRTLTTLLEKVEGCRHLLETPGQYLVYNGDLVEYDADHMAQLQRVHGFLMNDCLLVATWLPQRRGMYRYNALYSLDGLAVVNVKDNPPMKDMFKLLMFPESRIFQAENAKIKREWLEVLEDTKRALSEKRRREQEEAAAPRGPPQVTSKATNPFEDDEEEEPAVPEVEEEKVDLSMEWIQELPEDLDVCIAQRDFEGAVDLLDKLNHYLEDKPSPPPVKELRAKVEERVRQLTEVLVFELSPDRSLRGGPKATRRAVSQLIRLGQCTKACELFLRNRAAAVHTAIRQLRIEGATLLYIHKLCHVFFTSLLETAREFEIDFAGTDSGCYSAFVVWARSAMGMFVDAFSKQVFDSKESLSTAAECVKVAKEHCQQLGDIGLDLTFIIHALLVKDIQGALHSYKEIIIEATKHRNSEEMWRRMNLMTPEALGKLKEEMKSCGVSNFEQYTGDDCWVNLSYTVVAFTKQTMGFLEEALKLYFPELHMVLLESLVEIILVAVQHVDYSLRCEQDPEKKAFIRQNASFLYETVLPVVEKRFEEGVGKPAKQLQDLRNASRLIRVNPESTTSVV
UniProt P41091, whole entry: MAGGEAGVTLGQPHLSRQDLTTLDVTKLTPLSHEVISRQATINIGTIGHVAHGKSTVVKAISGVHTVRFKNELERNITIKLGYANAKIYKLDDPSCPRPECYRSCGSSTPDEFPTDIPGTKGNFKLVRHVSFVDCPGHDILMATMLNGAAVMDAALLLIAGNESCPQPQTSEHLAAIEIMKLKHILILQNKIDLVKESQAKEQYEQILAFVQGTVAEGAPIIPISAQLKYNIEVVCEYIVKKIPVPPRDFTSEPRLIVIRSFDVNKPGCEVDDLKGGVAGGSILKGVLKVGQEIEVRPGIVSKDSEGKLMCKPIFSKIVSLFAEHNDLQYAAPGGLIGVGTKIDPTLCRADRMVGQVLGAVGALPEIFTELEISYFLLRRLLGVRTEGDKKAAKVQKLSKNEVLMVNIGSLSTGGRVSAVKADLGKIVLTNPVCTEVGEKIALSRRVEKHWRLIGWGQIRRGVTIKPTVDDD

This is one part of the list.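 The calls were made as follows: active = dose-dependent thermal stabilisation significant by F-test of dose-response against flat model at 10% FDR; inactive = not significant.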

Compound in this assay: Nc1nc2c(ncn2[C@@H]2O[C@H](COP(=O)(O)OP(=O)(O)OP(=O)(O)O)[C@@H](O)[C@H]2O)c(=O)[nH]1
Briefly: dose-dependent thermal stabilisation call (2D-TPP, DLPTP, 10% FDR) (binary (1 = stabilised)); higher = stabilised by the compound. The following applies: system: Jurkat gel-filtered lysate; concentration range 1-500 µM.
Consider EIF3G (UniProt O75821), for which the “dose-dependent thermal stabilisation call” value was inactive: 0. As to FSCN1 (UniProt Q16658), the “dose-dependent thermal stabilisation call” value is inactive: 0. FBXO28 (UniProt Q9NVF7): the “dose-dependent thermal stabilisation call” value is inactive: 0.

Turning to EIF3I (UniProt Q13347), the “dose-dependent thermal stabilisation call” value was inactive: 0. Regarding EXOSC5 (UniProt Q9NQT4), the “dose-dependent thermal stabilisation call” value is inactive: 0.

On to EEFSEC (UniProt P57772), for which the “dose-dependent thermal stabilisation call” value is active: 1.

With ERCC8 (UniProt Q13216), the “dose-dependent thermal stabilisation call” value was inactive: 0. With EXOC8 (UniProt Q8IYI6) the figure was inactive: 0; with EIF2S3 (UniProt P41091), inactive: 0.
